Our source for the AC50 values is PubChem BioAssay AID493014 (National Center for Advancing Translational Sciences (NCATS), 2011).

This assay is described as follows: qHTS Assay to Find Inhibitors of Chronic Active B-Cell Receptor Signaling. Particulars: ABC-DLBCL IkBa-CBG/CBR reporter, luminescence ratio (green luciferase fused to IkBa over red control in TMD8 lymphoma cells), 4 h. A digest of the protocol:
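Doxycycline induced both beetle luciferases in TMD8 lymphoma cells; IKK-driven degradation limits the IkappaBalpha-fused green signal, while red luminescence normalises for cell number and nonspecific effects. Compounds tested up to 46 uM, 4 hrs.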
Background: In qHTS, concentration-response curves come from the screen itself.

Where [1] appears, read: measured here: CBR red luminescence, cell number.
The mark [2] stands for this setting: measured here: IkBa-CBG green luminescence.

The structures appear in SMILES notation. This is one part of the list. Further columns of the screen follow, without active or inactive calls. Compounds called inactive in the main read-out are mostly missing here. Words in brackets tell the shape of the fitted curve; partial curves, single points and poor fits give uncertain potencies.

As a reminder, the AC50 is the concentration giving half of the maximal activity seen. Regarding `COc1cccc(NC(=O)CSc2nnc(Cc3cccs3)n2-c2ccc(C)cc2)c1`, the AC50 is 20.6 µM [falling, single point] under setting [1] and 23.1 µM [rising, partial curve, poor fit] under setting [2].

On to `Clc1ccccc1OCc1nnc2n1CCCCC2`, for which the AC50 under setting [1] is 1 µM [rising, partial curve, poor fit].

`COCCN1CC(=O)N2C(c3cccc(OC)c3)c3[nH]c4ccccc4c3C[C@H]2C1=O` (stereo not given in full): the AC50 under setting [1] was 1 µM [falling, full curve].

As for `COc1ccccc1NC(=S)NC(=O)C1CC1`, the AC50 under setting [1] was 2.59 µM [falling, full curve].

For the molecule `O=C(COc1ccccc1Cl)Nc1ccc(C(=O)O)cc1NC(=O)COc1ccccc1Cl`, the AC50 under setting [1] is 10 µM [falling, partial curve].

Consider `[O-][n+]1onc2c1CCC(=N/O)/C2=N\Nc1ccccc1`, for which the AC50 under setting [1] was 10 µM [falling, partial curve, poor fit].

As to `COc1ccc(C(=O)N2CCc3cc(OC)c(OC)cc3C2COc2ccccc2OC)cc1` (stereo not given), the AC50 under setting [1] was 2.82 µM [rising, partial curve, poor fit].

`COc1ccc(-c2oc3cc(O)c(OC)c(O)c3c(=O)c2OC)cc1`: the AC50 under setting [1] was 35.5 µM [falling, single point].

In the case of `Clc1ncccc1-c1nnn(-c2ccccc2)n1`, the AC50 under setting [1] was 12.6 µM [falling, single point].

Consider `O=C(c1ccc2c(c1)OCO2)C1CCCN(Cc2cn[nH]c2-c2ccccc2)C1` (stereo not given), for which, under setting [1], the concentration at half-maximal activity (AC50) was 35.5 µM [falling, single point].

`COC(=O)c1c(NC(=O)/C=C/C(=O)O)sc(C)c1-c1ccc(C)cc1`: the AC50 under setting [1] is 10 µM [falling, partial curve].

Take `CN(C)Cc1c(C(=O)N/N=C/c2ccncc2)nnn1-c1nonc1N`: the AC50 under setting [1] was 11.2 µM [falling, partial curve, poor fit].

With `CCc1nc(SCc2ccc(F)cc2)[nH]c(=O)c1C#N`, the AC50 by setting is: under setting [1], 25.9 µM [falling, partial curve, poor fit]; under setting [2], 29.1 µM [rising, partial curve, poor fit].

For the molecule `CCOCC(=O)Nc1cc(Cl)ccc1C`, the AC50 under setting [1] was 0.891 µM [rising, partial curve, poor fit].

For `Cc1cc(C(=O)COC(=O)c2ccc(O)cc2O)c(C)n1-c1ccc(OC(F)F)cc1`, the AC50 under setting [1] is 29.1 µM [falling, partial curve, poor fit].

As for `CCOC(=O)c1sc(SCC(=O)Nc2ccc(N(C)C)cc2)nc1N`, the AC50 under setting [1] is 14.1 µM [falling, partial curve, poor fit].

For the molecule `CCN(c1ccc(OC)cc1)S(=O)(=O)c1nnc(NC(=O)CC(C)C)s1`, the AC50 under setting [1] is 0.562 µM [rising, full curve, poor fit].

With `N#Cc1ccccc1CSc1ccc(-c2nc3ccccc3[nH]2)cn1`, the AC50 is 1.84 µM [falling, partial curve, poor fit] under setting [1] and 29.1 µM [falling, single point] under setting [2].

On to `COc1ccc(C(=O)N2CCOC2CNC(=O)C(=O)NCCc2ccccc2OC)cc1` (stereo not given), for which the AC50 under setting [1] was 35.5 µM [rising, partial curve, poor fit].

As to `COCc1c(C(=O)NC2CCCCC2)sc2cccc(F)c12`, the AC50 under setting [1] is 1.64 µM [rising, full curve].

Consider `Cc1ccc(N/C=C2/Sc3ccccc3NC2=O)cc1`, for which, under setting [1], the AC50 is 1.26 µM [falling, full curve, poor fit].

As to `C=C(C)c1cccc(C(C)(C)NC(=O)Nc2ccc(Cl)cn2)c1`, the AC50 under setting [1] is 16.4 µM [falling, single point].

For the molecule `CCOC(=O)Cc1c(C)nc2c(-c3ccc(Cl)cc3)cnn2c1C`, under setting [1], the AC50 was 35.5 µM [falling, single point].

On to `Cc1cc(NC(=O)CSc2nnc(COc3cccc(C)c3C)n2Cc2ccco2)no1`, for which the concentration at half-maximal activity (AC50) under setting [1] is 29.1 µM [falling, single point].

On to `NNC(=O)c1ccc(COc2ccc3ccccc3c2)cc1`, for which the AC50 under setting [1] was 20 µM [falling, partial curve, poor fit].

For the molecule `Nc1nc(SCC(=O)Nc2ccc(OCc3ccccc3)cc2)n[nH]1`, the AC50 under setting [1] was 22.4 µM [rising, single point].

`CCCCC(=O)Nc1nnc(-c2ccco2)o1`: the AC50 by setting is: under setting [1], 35.5 µM [falling, single point]; under setting [2], 35.5 µM [falling, single point].

On to `O=C(N/N=C/c1cccc(Oc2ccccc2)c1)c1cccc(O)c1`, for which the AC50 under setting [1] was 3.16 µM [falling, full curve].

In the case of `COc1ccc(/C=C2\SC(N3CCCCC3)=NC2=O)cc1OC`, the AC50 under setting [1] is 6.31 µM [rising, single point].

For the molecule `COc1ccc(OC)c(NC(=O)c2cc3sccc3n2C)c1`, the AC50 under setting [1] is 5.01 µM [falling, partial curve, poor fit].

Take `N/C(Cc1ccc(Cl)cc1)=N\OC(=O)c1cccc2ccccc12`: under setting [1], the AC50 is 8.91 µM [rising, partial curve, poor fit].

For `CCOc1ccc(-c2ccc(SCC(=O)Nc3nnc(C)s3)nn2)cc1`, the AC50 under setting [1] is 0.631 µM [falling, full curve, poor fit].

On to `CCOc1ccc(C(=O)CC(Sc2ccc(C)cc2)C(=O)O)cc1` (stereo not given), for which the AC50 by setting is: under setting [1], 35.5 µM [falling, single point]; under setting [2], 14.1 µM [rising, partial curve, poor fit].

For `CC(=O)c1ccc(OC(C)c2nc3ccccc3s2)cc1` (stereo not given), the AC50 under setting [1] is 7.08 µM [rising, full curve].

As to `COc1ccc(-n2c(C)cc(/C=C3/SC(=O)N(CC(=O)N4CCOCC4)C3=O)c2C)cc1`, the AC50 under setting [1] is 29.1 µM [rising, single point].

Turning to `COc1cc2c(cc1OC)C(c1ccc(Br)cc1)CC(=O)N2` (stereo not given), the half-maximal activity concentration (AC50) under setting [2] is 11.2 µM [falling, partial curve, poor fit].

Take `COC(=O)c1sccc1NC(=O)Nc1ccc(OC)cc1OC`: the AC50 under setting [1] is 5.01 µM [falling, partial curve, poor fit].

As to `COc1cc(/C=C/C(=O)c2ccc3c(c2)OCCO3)cc(Br)c1OCC(=O)N(C)C`, under setting [1], the AC50 was 15.8 µM [falling, partial curve, poor fit].

For `O=C(NCc1ccco1)c1ccc(S(=O)(=O)c2cccc(S(=O)(=O)N3CCOCC3)c2)cc1`, the concentration at half-maximal activity (AC50) under setting [1] was 0.259 µM [rising, full curve, poor fit].

For the molecule `Cc1ccc(C(=O)COc2ccccc2-c2ccccc2)cc1C`, under setting [1], the AC50 was 2.06 µM [rising, partial curve, poor fit].

With `O=C1Cc2ccccc2C(=O)N1CCc1ccccc1`, the AC50 under setting [1] is 15.8 µM [falling, single point].

For `O=C(O)c1cncc(C#Cc2ccccc2)c1`, the AC50 under setting [1] is 35.5 µM [rising, single point].

As to `Cn1cc(CN2CCc3ccccc3C2)c2ccccc21`, the AC50 under setting [1] is 1.46 µM [falling, full curve, poor fit].

In the case of `CCCN(CCC)CCCNS(=O)(=O)c1ccc2c(c1)oc(=O)n2C`, under setting [1], the AC50 is 2.06 µM [falling, single point].

For `Cc1cccc(/C=C2\Sc3ccc(C(=O)N4CCC(C)CC4)cc3N(C)C2=O)c1`, the AC50 under setting [1] is 20 µM [falling, partial curve, poor fit].

Turning to `O=C1N(Cc2ccc(F)cc2Cl)c2ccccc2C12OCCCO2`, the half-maximal activity concentration (AC50) under setting [1] is 16.4 µM [rising, single point].

As to `O=C(CCC(=O)N1CCOc2ccc(Cl)cc21)NCCCN1CCC(Cc2ccccc2)CC1`, the AC50 under setting [1] is 0.251 µM [falling, full curve, poor fit].

On to `O=C(c1ccncc1)N1CCCC(N2CCN(c3ccc(F)cc3)CC2)C1` (stereo not given), for which the AC50 under setting [1] was 35.5 µM [falling, single point].

Turning to `CCC(=O)Nc1ccc(C(=O)N2CCN(C(=O)c3ccco3)CC2)cc1`, under setting [1], the AC50 was 6.31 µM [falling, single point].

As for `CCc1nnc(NC(=O)CS(=O)(=O)c2ccccc2)s1`, the AC50 under setting [1] is 35.5 µM [falling, single point].

Consider `Cc1cccc(/C=N/NC(=O)c2cc(C)nc3ccccc23)n1`, for which the AC50 under setting [1] was 35.5 µM [falling, single point].

With `CC(=O)CCc1c[nH]c2c(C(=O)O)cccc12`, the AC50 under setting [1] was 0.411 µM [rising, partial curve, poor fit].

For `FC(F)(F)c1ccc(Oc2ccc3ccccc3c2Br)nc1`, under setting [1], the AC50 is 14.6 µM [rising, partial curve, poor fit].

For `CCOC(=O)c1ccccc1NC(=O)CSc1nnnn1C`, the AC50 under setting [1] was 13 µM [falling, partial curve, poor fit].

`Cc1ccccc1OCC(=O)NNC(=O)CCN1C(=O)c2ccccc2C1=O`: the AC50 under setting [1] was 17.8 µM [rising, single point].

For the molecule `COc1ccc(CNc2cc(C)nc3ncnn23)c(OC)c1`, the AC50 under setting [1] is 13 µM [rising, partial curve].

As to `COc1ccccc1C(=O)Nc1nnc(S(=O)(=O)N2CCCCCC2)s1`, the AC50 under setting [1] is 0.316 µM [rising, full curve, poor fit].

In the case of `CCn1c(SCC(=O)N/N=C/c2c[nH]c3ccccc23)nnc1-c1ccc(C(C)(C)C)cc1`, the AC50 under setting [1] was 16.4 µM [falling, single point].

`Cc1nc(SCC(=O)c2ccccc2)c(C#N)c(-c2ccco2)c1C(=O)NCc1ccco1`: the AC50 under setting [1] was 35.5 µM [falling, single point].

Regarding `Cc1ccc(OCC(O)CNC(=O)c2ccccc2C(=O)O)cc1` (stereo not given), under setting [1], the AC50 is 10 µM [rising, partial curve, poor fit].

For `Nc1c(C(=O)N2CCCCCC2)oc2ccccc12`, under setting [1], the AC50 is 5.01 µM [rising, full curve, poor fit].

Take `Cc1ccc(-c2csnn2)cc1`: the AC50 under setting [1] was 35.5 µM [rising, single point].

Regarding `CC(C)CC(=O)NC(=S)Nc1ccc(Cl)cn1`, under setting [1], the AC50 is 23.1 µM [rising, partial curve, poor fit].

On to `CCC(COC)Oc1cc(NCc2ccccc2)c2ncn(C(C)C)c2c1` (stereo not given), for which the AC50 reads like this: under setting [1], 20.6 µM [falling, single point]; under setting [2], 16.4 µM [rising, partial curve, poor fit].
